Data taken from the supplement of paper PMC12819154, “High-throughput peptide-centric local stability assay extends protein–ligand identification to membrane proteins, tissues and bacteria” (Nature Structural & Molecular Biology, 2025).
The list shows a part of the results. Small differences around the control level are noise.

Amino acid sequences for entries named in this document (tags omitted). A change or cut given only in a name is not applied to a line headed by its entry.
UniProt Q9UKK3: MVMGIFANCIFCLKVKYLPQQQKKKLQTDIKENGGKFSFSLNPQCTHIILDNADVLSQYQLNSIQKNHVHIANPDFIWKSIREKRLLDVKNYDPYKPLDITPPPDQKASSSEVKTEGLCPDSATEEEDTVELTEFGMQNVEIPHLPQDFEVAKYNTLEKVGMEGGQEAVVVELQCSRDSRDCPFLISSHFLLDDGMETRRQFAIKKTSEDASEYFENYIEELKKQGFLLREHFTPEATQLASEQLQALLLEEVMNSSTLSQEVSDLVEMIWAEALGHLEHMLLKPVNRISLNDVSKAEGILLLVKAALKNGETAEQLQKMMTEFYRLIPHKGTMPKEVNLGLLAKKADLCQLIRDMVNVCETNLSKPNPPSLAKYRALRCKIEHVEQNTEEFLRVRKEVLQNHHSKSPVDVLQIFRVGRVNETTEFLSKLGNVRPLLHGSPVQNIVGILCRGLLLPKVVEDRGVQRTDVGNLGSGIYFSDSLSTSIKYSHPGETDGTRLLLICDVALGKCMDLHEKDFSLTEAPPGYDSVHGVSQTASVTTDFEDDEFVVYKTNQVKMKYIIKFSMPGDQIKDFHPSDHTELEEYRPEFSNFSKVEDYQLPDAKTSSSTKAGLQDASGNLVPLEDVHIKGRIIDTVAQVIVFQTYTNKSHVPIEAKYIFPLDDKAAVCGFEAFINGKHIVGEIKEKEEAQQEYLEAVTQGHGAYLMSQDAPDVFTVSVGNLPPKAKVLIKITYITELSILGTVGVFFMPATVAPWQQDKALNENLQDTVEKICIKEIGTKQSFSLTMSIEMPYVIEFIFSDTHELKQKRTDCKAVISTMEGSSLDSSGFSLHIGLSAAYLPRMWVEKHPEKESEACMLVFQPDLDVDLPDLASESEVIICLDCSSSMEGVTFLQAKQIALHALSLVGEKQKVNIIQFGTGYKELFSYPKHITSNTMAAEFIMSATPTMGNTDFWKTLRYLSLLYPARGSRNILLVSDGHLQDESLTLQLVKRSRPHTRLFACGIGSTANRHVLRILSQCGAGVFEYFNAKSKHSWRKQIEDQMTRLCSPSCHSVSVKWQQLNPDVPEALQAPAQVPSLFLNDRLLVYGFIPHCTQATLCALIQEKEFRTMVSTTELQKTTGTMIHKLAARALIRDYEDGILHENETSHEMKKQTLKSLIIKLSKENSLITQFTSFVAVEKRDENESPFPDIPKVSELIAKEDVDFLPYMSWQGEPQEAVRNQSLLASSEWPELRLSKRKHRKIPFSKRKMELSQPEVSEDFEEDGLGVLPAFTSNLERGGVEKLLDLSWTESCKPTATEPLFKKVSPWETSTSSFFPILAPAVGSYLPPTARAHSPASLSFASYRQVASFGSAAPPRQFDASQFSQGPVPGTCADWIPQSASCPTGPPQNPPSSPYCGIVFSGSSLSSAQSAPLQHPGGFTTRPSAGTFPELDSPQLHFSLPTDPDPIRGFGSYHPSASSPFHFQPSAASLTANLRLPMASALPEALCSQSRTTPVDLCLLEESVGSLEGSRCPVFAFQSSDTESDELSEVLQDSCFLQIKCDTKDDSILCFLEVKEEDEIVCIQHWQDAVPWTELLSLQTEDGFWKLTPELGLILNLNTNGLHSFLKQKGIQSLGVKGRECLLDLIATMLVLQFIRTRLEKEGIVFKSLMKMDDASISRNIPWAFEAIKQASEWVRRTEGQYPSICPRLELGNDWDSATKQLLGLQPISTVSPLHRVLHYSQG
UniProt Q9Y2I1: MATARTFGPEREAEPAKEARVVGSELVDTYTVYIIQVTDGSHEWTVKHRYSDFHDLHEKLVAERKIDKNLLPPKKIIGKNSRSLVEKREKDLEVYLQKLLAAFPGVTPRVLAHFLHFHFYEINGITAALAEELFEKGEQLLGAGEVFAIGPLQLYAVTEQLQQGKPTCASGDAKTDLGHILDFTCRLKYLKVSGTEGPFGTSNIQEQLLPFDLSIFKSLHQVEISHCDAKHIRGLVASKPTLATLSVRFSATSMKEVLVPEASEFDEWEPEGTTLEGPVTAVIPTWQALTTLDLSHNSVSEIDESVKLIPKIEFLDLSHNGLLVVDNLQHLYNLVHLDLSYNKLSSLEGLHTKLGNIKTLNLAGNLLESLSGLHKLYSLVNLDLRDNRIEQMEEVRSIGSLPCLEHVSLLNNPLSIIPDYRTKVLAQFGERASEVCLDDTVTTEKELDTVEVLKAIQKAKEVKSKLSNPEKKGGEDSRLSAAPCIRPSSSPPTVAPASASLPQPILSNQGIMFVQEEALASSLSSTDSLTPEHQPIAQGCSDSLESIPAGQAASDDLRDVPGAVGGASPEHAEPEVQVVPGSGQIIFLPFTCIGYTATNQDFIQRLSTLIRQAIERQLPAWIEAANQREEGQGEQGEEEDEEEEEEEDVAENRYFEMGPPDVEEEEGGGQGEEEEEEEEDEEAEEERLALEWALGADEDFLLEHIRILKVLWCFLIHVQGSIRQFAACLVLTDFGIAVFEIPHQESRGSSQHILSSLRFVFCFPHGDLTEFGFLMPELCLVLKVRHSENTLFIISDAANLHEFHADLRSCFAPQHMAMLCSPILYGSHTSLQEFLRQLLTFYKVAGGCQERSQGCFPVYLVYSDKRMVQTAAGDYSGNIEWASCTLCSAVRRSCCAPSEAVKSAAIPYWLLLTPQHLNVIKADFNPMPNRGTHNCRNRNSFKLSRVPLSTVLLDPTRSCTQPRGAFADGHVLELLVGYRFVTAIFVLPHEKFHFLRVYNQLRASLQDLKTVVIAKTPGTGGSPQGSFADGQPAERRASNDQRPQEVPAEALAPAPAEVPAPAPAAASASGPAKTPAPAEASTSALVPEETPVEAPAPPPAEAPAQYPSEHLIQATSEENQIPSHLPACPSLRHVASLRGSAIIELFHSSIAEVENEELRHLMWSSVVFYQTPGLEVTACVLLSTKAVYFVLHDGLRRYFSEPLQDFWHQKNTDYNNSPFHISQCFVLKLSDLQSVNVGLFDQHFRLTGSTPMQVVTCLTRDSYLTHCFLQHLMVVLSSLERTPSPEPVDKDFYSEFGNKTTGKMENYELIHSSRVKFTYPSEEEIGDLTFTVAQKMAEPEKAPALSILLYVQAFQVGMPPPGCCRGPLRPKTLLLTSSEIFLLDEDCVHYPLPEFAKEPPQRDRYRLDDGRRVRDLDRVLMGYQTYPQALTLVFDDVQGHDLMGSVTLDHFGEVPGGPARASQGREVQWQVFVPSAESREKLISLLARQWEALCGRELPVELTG
UniProt Q9ULD6: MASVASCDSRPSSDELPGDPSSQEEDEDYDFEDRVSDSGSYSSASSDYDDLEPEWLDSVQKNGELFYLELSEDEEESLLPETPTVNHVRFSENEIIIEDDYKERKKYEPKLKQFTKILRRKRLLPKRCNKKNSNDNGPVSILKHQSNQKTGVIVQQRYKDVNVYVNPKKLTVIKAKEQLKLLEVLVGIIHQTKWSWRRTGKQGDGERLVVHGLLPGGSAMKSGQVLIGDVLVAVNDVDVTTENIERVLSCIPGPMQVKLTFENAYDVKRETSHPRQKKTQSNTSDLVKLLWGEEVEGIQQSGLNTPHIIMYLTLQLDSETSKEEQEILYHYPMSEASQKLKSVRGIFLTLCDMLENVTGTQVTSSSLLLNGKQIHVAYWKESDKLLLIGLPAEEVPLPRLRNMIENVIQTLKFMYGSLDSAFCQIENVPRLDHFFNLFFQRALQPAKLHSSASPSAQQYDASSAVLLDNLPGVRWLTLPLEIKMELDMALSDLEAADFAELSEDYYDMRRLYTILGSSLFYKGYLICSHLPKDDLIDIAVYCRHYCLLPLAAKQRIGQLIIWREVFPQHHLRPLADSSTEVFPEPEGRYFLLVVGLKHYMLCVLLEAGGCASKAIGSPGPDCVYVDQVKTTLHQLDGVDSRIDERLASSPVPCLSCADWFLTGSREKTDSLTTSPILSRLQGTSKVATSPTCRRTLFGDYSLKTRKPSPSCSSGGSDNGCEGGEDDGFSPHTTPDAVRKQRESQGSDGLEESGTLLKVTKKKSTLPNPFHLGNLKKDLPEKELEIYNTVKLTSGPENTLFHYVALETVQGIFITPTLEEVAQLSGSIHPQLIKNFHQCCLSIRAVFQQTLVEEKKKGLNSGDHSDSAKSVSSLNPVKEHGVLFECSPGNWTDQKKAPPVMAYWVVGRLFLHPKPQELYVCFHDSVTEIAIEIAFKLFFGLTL
UniProt Q9UQ80: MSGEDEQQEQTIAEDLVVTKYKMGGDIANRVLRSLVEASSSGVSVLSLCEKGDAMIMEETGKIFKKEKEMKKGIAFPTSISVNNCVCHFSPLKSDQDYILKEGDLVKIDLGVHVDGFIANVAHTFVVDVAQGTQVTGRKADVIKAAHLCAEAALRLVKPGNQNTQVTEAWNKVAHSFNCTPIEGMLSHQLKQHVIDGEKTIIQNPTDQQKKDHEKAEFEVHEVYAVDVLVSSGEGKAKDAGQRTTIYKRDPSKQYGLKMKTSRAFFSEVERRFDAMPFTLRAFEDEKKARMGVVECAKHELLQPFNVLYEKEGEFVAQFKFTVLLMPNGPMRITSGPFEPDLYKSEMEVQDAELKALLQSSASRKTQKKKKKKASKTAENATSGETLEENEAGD
UniProt Q9Y2G7: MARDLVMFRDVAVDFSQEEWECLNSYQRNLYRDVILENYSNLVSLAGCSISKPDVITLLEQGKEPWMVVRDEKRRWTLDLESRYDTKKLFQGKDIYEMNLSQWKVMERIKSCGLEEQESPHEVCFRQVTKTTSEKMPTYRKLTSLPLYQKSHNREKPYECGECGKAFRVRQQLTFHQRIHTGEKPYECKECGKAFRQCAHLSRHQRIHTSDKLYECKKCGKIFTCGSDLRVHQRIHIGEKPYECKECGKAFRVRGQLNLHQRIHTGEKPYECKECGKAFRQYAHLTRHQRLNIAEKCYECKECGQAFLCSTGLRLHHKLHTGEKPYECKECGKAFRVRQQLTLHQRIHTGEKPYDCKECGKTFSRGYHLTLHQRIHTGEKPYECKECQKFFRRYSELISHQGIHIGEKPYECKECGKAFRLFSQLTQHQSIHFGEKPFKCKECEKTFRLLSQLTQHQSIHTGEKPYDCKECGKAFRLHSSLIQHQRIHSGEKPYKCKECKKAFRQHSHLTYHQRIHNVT
UniProt Q9Y3B4: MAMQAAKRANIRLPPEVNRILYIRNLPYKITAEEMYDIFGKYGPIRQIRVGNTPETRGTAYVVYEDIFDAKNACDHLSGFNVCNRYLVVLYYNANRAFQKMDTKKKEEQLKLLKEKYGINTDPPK
UniProt Q9UPM8: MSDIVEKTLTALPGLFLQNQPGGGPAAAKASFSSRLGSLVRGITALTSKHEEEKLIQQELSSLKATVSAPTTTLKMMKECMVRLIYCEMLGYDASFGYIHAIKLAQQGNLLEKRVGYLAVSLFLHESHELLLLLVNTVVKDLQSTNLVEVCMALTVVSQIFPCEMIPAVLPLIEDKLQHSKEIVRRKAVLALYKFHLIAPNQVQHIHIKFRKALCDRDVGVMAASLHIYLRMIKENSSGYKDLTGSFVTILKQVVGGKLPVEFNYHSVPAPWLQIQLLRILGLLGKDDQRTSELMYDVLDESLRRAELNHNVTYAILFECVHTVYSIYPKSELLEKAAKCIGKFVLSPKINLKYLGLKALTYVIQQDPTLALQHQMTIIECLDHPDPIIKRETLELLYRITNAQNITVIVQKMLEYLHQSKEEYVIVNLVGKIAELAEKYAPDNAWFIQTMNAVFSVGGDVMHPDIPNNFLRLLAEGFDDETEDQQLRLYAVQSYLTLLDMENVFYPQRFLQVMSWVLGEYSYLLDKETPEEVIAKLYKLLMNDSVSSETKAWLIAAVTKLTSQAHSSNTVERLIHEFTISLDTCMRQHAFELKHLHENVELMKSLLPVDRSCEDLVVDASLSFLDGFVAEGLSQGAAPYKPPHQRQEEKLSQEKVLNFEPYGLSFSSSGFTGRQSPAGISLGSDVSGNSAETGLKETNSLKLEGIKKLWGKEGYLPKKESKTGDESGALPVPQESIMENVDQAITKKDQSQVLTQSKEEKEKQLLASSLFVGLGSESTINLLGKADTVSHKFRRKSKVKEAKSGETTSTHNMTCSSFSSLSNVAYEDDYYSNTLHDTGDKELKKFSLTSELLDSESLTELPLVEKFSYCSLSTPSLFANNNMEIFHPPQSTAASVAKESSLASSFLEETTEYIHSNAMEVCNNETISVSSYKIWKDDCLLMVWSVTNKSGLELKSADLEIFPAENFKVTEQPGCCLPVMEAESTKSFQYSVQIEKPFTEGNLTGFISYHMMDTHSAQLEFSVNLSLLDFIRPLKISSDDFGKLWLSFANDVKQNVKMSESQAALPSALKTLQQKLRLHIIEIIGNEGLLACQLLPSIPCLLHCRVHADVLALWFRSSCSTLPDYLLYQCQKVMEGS
UniProt Q9UMS0: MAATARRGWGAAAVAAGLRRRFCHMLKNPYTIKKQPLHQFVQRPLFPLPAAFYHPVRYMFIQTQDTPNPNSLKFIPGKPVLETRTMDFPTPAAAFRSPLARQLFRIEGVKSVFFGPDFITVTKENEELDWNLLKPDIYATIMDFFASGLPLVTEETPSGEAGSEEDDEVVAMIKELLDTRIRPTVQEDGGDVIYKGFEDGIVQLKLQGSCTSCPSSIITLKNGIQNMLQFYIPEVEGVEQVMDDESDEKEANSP

These targets were tested with CN[C@@H]1C[C@H]2O[C@@](C)([C@@H]1OC)n1c3ccccc3c3c4c(c5c6ccccc6n2c5c31)C(=O)NC4 [staurosporine] (assay: log2 fold change of tryptic peptide abundance, ligand vs vehicle (limited proteolysis) (log2 ratio); higher = more trypsin-susceptible (destabilized)). Conditions: ligand concentration: 20 uM; sample: K562 cleared lysate; digestion: 4 min, 22 C (HT-PELSA RT4min, Orbitrap Astral).

Question: How did the log2 fold change turn out when “LUC7L2 (peptide sequence: VMDEVEK, peptide start residue: 155) (UniProt Q9Y383)” was run?
Answer: -0.356

Question: For “UniProt Q9UKZ1 (peptide sequence: TLDTGETPSETK, peptide start residue: 496)”, which log2 fold change is on record?
Answer: 0.0539

Question: Which log2 fold change does the source give for “RBMX2 (peptide sequence: SSDAHSSWYNGR, peptide start residue: 272) (UniProt Q9Y388)” here?
Answer: 0.352

Question: “UNC13A (peptide sequence: LKDHMVR, peptide start residue: 1335) (UniProt Q9UPW8)” was tested. Which log2 fold change did it give?
Answer: 0.265

Question: “ARL2BP (peptide sequence: SSSLPASQNNLRH, peptide start residue: 151) (UniProt Q9Y2Y0)” was tested. Which log2 fold change did it give?
Answer: 0.0847

Question: For “PARP4 (peptide sequence: VEDYQLPDAK, peptide start residue: 595) (UniProt Q9UKK3)”, which log2 fold change is on record?
Answer: 0.27

Question: “NISCH (peptide sequence: GSAIIELFHSSIAEVENEELR, peptide start residue: 1139) (UniProt Q9Y2I1)” was tested. Which log2 fold change did it give?
Answer: 0.789

Question: How did the log2 fold change turn out when “UniProt Q9Y2L5 (peptide sequence: NSDNNLLSLDGLDNEVK, peptide start residue: 272)” was run?
Answer: -0.728

Question: With “UBQLN1 (peptide sequence: NPEISHMLNNPDIMR, peptide start residue: 222) (UniProt Q9UMX0)” as the target, how does the log2 fold change read?
Answer: -0.11

Question: For “UniProt Q9UKV8 (peptide sequence: AVQVHQDTLRTMYFA, peptide start residue: 845)”, which log2 fold change is on record?
Answer: 0.74

Question: For “ZMIZ1 (peptide sequence: SDLHIKDDPDGIPSKR, peptide start residue: 829) (UniProt Q9ULJ6)”, which log2 fold change is on record?
Answer: 0.524

Question: How did the log2 fold change turn out when “MRPS2 (peptide sequence: FMEPYIFGSR, peptide start residue: 101) (UniProt Q9Y399)” was run?
Answer: -0.171

Question: How did the log2 fold change turn out when “INTU (peptide sequence: RETSHPR, peptide start residue: 269) (UniProt Q9ULD6)” was run?
Answer: 0.965

Question: With “PA2G4 (peptide sequence: AFFSEVER, peptide start residue: 264) (UniProt Q9UQ80)” as the target, how does the log2 fold change read?
Answer: -0.137

Question: With “RRP7A (peptide sequence: CAARDPEDRIPSPLGYAAIPIK, peptide start residue: 8) (UniProt Q9Y3A4)” as the target, how does the log2 fold change read?
Answer: 0.425

Question: “MRPS28 (peptide sequence: NVESFASMLR, peptide start residue: 76) (UniProt Q9Y2Q9)” was tested. Which log2 fold change did it give?
Answer: -0.118

Question: For “UniProt Q9UQ16 (peptide sequence: MGTPHLQK, peptide start residue: 272)”, which log2 fold change is on record?
Answer: 0.193

Question: Which log2 fold change does the source give for “MRPL11 (peptide sequence: IGQPTVSYFLK, peptide start residue: 82) (UniProt Q9Y3B7)” here?
Answer: 0.0778

Question: For “ANKRD50 (peptide sequence: SSGCFLYLER, peptide start residue: 299) (UniProt Q9ULJ7)”, which log2 fold change is on record?
Answer: -0.608

Question: For “SH3GLB1 (peptide sequence: CGETQKR, peptide start residue: 121) (UniProt Q9Y371)”, which log2 fold change is on record?
Answer: 1.45

Question: For “UniProt Q9Y283 (peptide sequence: GSPGGSLGGALQK, peptide start residue: 660)”, which log2 fold change is on record?
Answer: -0.00239

Question: With “UniProt Q9Y2G7 (peptide sequence: WTLDLESR, peptide start residue: 76)” as the target, how does the log2 fold change read?
Answer: 0.29

Question: “UniProt Q9Y3B4 (peptide sequence: EKYGINTDPPK, peptide start residue: 115)” was tested. Which log2 fold change did it give?
Answer: 0.215

Question: With “MAPK8IP3 (peptide sequence: QLSPNGGQEDTR, peptide start residue: 674) (UniProt Q9UPT6)” as the target, how does the log2 fold change read?
Answer: 0.0812

Question: For “SUFU (peptide sequence: DSLESDSSTAIIPHELIR, peptide start residue: 345) (UniProt Q9UMX1)”, which log2 fold change is on record?
Answer: -0.383

Question: For “ICK (peptide sequence: LNHANVVK, peptide start residue: 68) (UniProt Q9UPZ9)”, which log2 fold change is on record?
Answer: -0.411

Question: “AP4E1 (peptide sequence: DQSQVLTQSKEEKEK, peptide start residue: 749) (UniProt Q9UPM8)” was tested. Which log2 fold change did it give?
Answer: -0.212

Question: With “COG6 (peptide sequence: GFIDALTR, peptide start residue: 280) (UniProt Q9Y2V7)” as the target, how does the log2 fold change read?
Answer: 0.171

Question: For “NFU1 (peptide sequence: TMDFPTPAAAFR, peptide start residue: 85) (UniProt Q9UMS0)”, which log2 fold change is on record?
Answer: 0.157
